Assay results as given in patent publication CN105585631A.
Results are given in words; binding and its absence hold for the method and conditions named.

What was measured:
HPV52 VLP (HPV52) [1] = experiment: sandwich ELISA kit: 5A6 capture, 4G12-HRP detection (result of the pair of antibodies)
HPV52 VLP (HPV52) [2] = experiment: SPR, BIACORE 3000

B1: 单克隆抗体5A6 (杂交瘤细胞株5A6, CGMCC 11299) (antibody, V domains shown)
VH: VKLQQSGAELVKPGASVKLSCTASGFNIKDTYMHWVKQRPEQGLEWIGRIDPANGNTEYDPNFQGKATITSDTSSNTAYLHLSSLTSEDTAVYYCAREVGGYYFDYWGQGTTVTVSS
VL: DIQLTQSPSSMSASLGDRITITCQATQDIVKNLNWYQQKPGKPPSFLIYYATELAEGVPSRFSGSGSGSDYSLTISNLESEDFADYYCLQFYEFPLTFGAGTKLEI
HPV52 VLP (HPV52) [1]
  binding: no binding (tested: 10ug/ml VLP)
HPV52 VLP (HPV52) [2]
  binding: no binding (tested: antibody up to 20nmol/L)
